pIC50: −log10 of the molar value.

The target of series [1] is T1, OATP1B1 (Homo sapiens, UniProt Q9Y6L6).
T1 sequence (Q9Y6L6 1-691): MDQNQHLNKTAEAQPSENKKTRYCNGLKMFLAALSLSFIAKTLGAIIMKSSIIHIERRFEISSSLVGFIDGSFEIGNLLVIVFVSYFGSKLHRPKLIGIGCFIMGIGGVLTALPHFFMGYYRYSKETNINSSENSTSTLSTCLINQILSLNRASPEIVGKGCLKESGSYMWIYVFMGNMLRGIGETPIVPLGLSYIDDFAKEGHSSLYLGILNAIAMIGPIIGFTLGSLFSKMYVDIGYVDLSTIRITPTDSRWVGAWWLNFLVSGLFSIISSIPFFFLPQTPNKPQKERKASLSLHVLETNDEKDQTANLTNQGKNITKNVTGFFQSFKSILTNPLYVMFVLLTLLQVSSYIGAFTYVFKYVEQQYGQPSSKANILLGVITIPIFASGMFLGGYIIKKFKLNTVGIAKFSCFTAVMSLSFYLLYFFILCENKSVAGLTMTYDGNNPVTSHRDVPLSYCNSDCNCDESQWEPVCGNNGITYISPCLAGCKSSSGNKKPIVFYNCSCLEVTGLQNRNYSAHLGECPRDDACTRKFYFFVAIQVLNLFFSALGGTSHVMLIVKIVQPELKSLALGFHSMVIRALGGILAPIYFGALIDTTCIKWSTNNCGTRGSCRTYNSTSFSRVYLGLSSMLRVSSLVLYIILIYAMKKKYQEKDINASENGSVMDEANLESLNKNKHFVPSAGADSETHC
The experiment in a line: Competitive counterflow (CCF) assay, efflux of preloaded [3H]-EβG in OATP1B1-overexpressing HEK293 cells. As to conditions: at all three tested concentrations (1, 10, 100 μmol/L). How it is done: Cellular accumulation assays were performed in human embryonic kidney cells (HEK293; RRID: CVCL_0045) that were genetically engineered to overexpress human OATP1B1 ([23]–[25]). Cell lines were authenticated by Applied Biosystems AmpFISTR Identifiler testing with PCR amplification. […] All cells were used within passage 30 and verified to be Mycoplasma-free using the MycoAlert Mycoplasma Detection Kit (Lonza). At 80% to 90% confluency, cells were seeded on poly-D-lysine–coated 96-well plates 24 hours prior to the assay (2,500 cells/well), and expression of OATP1B1 was induced with 1 μg/mL doxycycline in phenol red–free DMEM.
The CCF assay uses OATP1B1-overexpressing HEK293 cells seeded and cultured as described above. During the study, cells were preincubated at room temperature (∼ 20°C) with 0.01 μmol/L EβG in prewarmed serum-free and phenol red–free DMEM for 1 hour. Following preincubation, each well was spiked with 1 μL of a stock solution containing 0.1, 1, or 10 mmol/L of positive control (EβG), negative control (glucose), test compound dissolved in Dimethylsulfoxide (DMSO), or DMSO only as a vehicle control. […] Total radioactivity was determined on a MicroBeta microplate scintillation counter (PerkinElmer), and the resulting counts were then normalized to total protein as determined using a Pierce protein assay (Thermo Fisher Scientific).

For series [2], the system named is OATP1B1. As to conditions: cited from earlier work.
The subject of series [3] is P-gp. Conditions: at 5 µM; ref PMID#17826829; cited from earlier work.
In series [4] the test system is OATP1B3. As to conditions: cited from earlier work.

Regarding `CO[C@@H]1[C@H](N(C)C(=O)c2ccccc2)C[C@H]2O[C@]1(C)n1c3ccccc3c3c4c(c5c6ccccc6n2c5c31)C(=O)NC4` [Midostaurin], the “hit in CCF assay (efflux >50% relative to EβG)” value in series [1] is recorded as “hits”. In series [2] (literature reports, ref not given), the “reported to inhibit OATP1B1” value is recorded as “reported to inhibit OATP1B1”. The pIC50 in series [2] (read-out: OATP1B1 IC50) is 5.89 to 6.52; in series [4], 5.30. The P-gp inhibition in series [3] is 83-91%.

Usually pIC50 stands for the negative decadic logarithm of the IC50, by convention in mol/L.

The record behind these values is paper PMC11417675, “Systematic Evaluation of Tyrosine Kinase Inhibitors as OATP1B1 Substrates Using a Competitive Counterflow Screen” (Cancer Research Communications, 2024).
